In PMC8264492:
No constants are given. Whether binding was seen depends on the method and setting. In cells and extracts the contact can be indirect. Some binding calls cover weakened binding; strength is not graded here. For some of these results: Where a sequence is shown, tags or fusion partners need not be part of it.

Chains of the proteins cited; added tags and fusions are not shown.
UniProt O75928: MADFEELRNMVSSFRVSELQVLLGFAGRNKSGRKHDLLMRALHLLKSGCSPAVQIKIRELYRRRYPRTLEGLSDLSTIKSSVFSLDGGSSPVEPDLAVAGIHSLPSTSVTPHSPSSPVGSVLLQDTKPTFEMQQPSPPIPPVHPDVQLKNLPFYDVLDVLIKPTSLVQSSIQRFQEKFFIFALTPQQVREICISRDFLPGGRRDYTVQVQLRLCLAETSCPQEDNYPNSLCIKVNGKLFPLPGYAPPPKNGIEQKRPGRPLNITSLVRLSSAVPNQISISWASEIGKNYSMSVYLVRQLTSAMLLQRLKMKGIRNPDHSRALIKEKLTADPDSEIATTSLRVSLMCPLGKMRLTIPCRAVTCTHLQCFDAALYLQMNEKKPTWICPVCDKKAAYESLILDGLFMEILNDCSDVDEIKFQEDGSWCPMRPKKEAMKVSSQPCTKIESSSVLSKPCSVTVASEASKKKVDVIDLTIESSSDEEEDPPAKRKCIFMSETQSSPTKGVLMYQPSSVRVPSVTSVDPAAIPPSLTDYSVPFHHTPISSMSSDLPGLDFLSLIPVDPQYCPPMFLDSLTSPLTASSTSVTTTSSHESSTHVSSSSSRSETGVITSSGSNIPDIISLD
UniProt O75925: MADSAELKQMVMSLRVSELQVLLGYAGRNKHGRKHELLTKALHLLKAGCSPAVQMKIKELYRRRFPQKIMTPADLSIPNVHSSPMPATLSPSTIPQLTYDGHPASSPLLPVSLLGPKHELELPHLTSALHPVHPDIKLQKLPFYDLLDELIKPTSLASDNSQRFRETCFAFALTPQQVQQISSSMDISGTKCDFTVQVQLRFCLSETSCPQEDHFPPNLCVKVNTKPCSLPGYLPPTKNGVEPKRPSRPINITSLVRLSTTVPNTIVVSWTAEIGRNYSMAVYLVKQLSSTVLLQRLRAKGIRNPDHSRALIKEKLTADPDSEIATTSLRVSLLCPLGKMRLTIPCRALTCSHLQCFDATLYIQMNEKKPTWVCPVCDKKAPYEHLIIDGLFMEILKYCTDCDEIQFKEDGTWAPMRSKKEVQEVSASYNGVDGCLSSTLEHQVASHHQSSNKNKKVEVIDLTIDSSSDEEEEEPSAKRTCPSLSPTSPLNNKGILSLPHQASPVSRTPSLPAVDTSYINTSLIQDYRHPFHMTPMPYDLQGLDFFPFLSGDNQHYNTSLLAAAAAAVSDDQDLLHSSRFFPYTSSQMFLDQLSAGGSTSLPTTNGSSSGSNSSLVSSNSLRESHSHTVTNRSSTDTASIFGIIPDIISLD
UniProt Q9Y3Z3: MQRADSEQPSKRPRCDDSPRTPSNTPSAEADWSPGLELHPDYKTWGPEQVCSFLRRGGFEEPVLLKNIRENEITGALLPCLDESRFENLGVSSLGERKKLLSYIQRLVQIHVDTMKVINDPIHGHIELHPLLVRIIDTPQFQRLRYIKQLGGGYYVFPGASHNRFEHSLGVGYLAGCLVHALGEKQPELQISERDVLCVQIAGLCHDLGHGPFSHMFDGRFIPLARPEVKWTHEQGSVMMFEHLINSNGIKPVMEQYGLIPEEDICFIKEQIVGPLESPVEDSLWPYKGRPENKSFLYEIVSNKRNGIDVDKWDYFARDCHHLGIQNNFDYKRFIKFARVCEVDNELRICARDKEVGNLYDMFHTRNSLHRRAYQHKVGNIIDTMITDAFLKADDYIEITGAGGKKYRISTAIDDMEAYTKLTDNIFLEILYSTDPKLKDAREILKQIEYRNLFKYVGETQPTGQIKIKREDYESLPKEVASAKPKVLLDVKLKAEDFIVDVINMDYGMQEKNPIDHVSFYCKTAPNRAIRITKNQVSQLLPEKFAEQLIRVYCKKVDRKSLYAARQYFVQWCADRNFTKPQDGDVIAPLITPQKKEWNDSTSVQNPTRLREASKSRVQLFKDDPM

Columns and labels:
Experiment in all cases: co-IP; 293 T cells co-transfected with SAMHD1 and a V5-tagged PIAS protein or PIAS1 truncation mutant; harvested 48 h after transfection, lysed in RIPA buffer (50 mM Tris-HCl, 150 mM NaCl, 1% NP40, 1% deoxycholate, 0.1% SDS, 1 mM EDTA); PIAS precipitated, SAMHD1 detected by WB
V5-tagged PIAS2 = V5-tagged PIAS2 (UniProt O75928)
[1] = biological target: V5-tagged full length PIAS1 (aa 1-651) (UniProt O75925)
V5-tagged PIAS3 = biological target: T1, V5-tagged PIAS3 (UniProt Q9Y6X2)
T1 sequence: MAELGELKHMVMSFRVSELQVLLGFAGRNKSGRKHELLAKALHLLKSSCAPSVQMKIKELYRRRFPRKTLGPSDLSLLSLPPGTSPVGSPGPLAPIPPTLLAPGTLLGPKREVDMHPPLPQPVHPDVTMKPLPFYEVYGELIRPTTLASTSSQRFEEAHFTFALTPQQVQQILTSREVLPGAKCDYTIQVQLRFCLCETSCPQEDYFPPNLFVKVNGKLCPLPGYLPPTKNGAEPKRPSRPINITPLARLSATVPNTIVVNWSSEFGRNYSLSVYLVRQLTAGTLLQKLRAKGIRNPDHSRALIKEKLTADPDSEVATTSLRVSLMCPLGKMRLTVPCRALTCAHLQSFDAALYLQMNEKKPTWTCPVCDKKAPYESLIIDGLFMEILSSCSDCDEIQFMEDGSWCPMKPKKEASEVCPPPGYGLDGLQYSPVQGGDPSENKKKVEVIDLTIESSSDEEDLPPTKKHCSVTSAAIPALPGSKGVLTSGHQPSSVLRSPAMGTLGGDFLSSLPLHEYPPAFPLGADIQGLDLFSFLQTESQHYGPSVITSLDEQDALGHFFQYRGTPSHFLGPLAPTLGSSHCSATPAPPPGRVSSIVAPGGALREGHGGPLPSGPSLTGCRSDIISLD

V5-tagged PIAS4 = biological target: T2, V5-tagged PIAS4 (UniProt Q8N2W9)
T2 sequence: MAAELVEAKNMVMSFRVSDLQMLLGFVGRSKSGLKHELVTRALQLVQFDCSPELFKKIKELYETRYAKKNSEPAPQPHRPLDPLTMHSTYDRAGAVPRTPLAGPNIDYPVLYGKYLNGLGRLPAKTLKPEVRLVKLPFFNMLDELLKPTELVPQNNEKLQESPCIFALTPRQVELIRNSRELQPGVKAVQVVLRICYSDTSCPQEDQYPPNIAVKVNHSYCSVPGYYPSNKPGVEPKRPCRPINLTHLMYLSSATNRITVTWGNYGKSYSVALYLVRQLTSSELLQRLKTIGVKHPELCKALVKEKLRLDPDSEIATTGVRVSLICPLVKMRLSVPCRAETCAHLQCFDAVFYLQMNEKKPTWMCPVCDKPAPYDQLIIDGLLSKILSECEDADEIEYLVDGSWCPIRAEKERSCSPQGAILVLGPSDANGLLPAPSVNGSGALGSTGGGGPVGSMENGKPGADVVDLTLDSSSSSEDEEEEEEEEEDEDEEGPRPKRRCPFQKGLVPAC

Measured: binding

Sterile alpha motif and HD domain 1 (SAMHD1), transfected (from UniProt Q9Y3Z3 1-626)
binds: all assays above
